Experimental data from article PMC12591119.
These are yes or no findings as the source states them, for the method shown. In cells and extracts the contact can be indirect. Some results given as binding are weak or reduced against the parent protein; the word gives no strength. Tags and fused reporters may be left off the sequences shown.

By UniProt entry, the sequences of proteins in these tests, tags left out.
UniProt Q9BYT3: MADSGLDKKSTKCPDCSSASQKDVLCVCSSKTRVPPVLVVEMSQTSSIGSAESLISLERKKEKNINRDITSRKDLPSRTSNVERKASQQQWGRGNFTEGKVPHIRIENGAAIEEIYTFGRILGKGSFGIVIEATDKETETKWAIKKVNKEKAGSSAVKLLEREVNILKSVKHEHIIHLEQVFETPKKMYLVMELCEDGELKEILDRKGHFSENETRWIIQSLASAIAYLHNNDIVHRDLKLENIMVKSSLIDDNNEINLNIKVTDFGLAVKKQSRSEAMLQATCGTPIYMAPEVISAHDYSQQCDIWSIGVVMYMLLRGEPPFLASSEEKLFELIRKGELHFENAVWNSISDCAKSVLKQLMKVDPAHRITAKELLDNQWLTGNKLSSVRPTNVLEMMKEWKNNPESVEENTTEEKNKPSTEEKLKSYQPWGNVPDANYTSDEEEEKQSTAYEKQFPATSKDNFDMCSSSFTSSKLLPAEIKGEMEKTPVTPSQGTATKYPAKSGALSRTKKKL

Target: Flag-STK33 (serine/threonine kinase 33) (UniProt Q9BYT3)
Assay: co-IP; 293T cells transfected with Flag-STK33 and HA-CCAR1; immunoprecipitation with anti-Flag or anti-HA antibodies, lysates and immunoprecipitates blotted

binding: binds
B1: HA-CCAR1 (protein, UniProt Q8IX12 1-1150)
chain: MAQFGGQKNPPWATQFTATAVSQPAALGVQQPSLLGASPTIYTQQTALAAAGLTTQTPANYQLTQTAALQQQAAAAAAALQQQYSQPQQALYSVQQQLQQPQQTLLTQPAVALPTSLSLSTPQPTAQITVSYPTPRSSQQQTQPQKQRVFTGVVTKLHDTFGFVDEDVFFQLSAVKGKTPQVGDRVLVEATYNPNMPFKWNAQRIQTLPNQNQSQTQPLLKTPPAVLQPIAPQTTFGVQTQPQPQSLLQAQISAASITPLLQTQPQPLLQQPQQKAGLLQPPVRIVSQPQPARRLDPPSRFSGRNDRGDQVPNRKDDRSRERERERRRSRERSPQRKRSRERSPRRERERSPRRVRRVVPRYTVQFSKFSLDCPSCDMMELRRRYQNLYIPSDFFDAQFTWVDAFPLSRPFQLGNYCNFYVMHREVESLEKNMAILDPPDADHLYSAKVMLMASPSMEDLYHKSCALAEDPQELRDGFQHPARLVKFLVGMKGKDEAMAIGGHWSPSLDGPDPEKDPSVLIKTAIRCCKALTGIDLSVCTQWYRFAEIRYHRPEETHKGRTVPAHVETVVLFFPDVWHCLPTRSEWETLSRGYKQQLVEKLQGERKEADGEQDEEEKDDGEAKEISTPTHWSKLDPKTMKVNDLRKELESRALSSKGLKSQLIARLTKQLKVEEQKEEQKELEKSEKEEDEDDDRKSEDDKEEEERKRQEEIERQRRERRYILPDEPAIIVHPNWAAKSGKFDCSIMSLSVLLDYRLEDNKEHSFEVSLFAELFNEMLQRDFGVRIYKSLLSLPEKEDKKEKDKKSKKDERKDKKEERDDETDEPKPKRRKSGDDKDKKEDRDERKKEDKRKDDSKDDDETEEDNNQDEYDPMEAEEAEDEEDDRDEEEMTKRDDKRDINRYCKERPSKDKEKEKTQMITINRDLLMAFVYFDQSHCGYLLEKDLEEILYTLGLHLSRAQVKKLLNKVVLRESCFYRKLTDTSKDEENHEESESLQEDMLGNRLLLPTPTVKQESKDVEENVGLIVYNGAMVDVGSLLQKLEKSEKVRAEVEQKLQLLEEKTDEDEKTILNLENSNKSLSGELREVKKDLSQLQENLKISENMNLQFENQMNKTIRNLSTVMDEIHTVLKKDNVKNEDKDQKSKENGASV
